Literature values as cited in patent publication US6287792A, “Drug delivery of antisense oligonucleotides and peptides to tissues in vivo and to cells using avidin-biotin technology” (The Regents of the University of California, priority 1991, dated 2001).
At least one read-out could not be matched to a standard name with certainty.

Amino acid sequences for entries named in this document (tags omitted). Residues count along the entry.
UniProt P02701, 25-152: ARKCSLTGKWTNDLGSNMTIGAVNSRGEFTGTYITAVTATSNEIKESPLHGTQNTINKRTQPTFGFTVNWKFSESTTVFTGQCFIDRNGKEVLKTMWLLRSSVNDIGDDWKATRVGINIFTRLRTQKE

Molecular target: avidin (Gallus gallus, UniProt P02701)
Conditions: avidin-biotin bond; cited from earlier work

O=C(O)CCCC[C@@H]1SC[C@@H]2NC(=O)N[C@@H]21 [biotin]
t1/2 of ligand dissociation: 89 days
